Assay results published in patent US9415047B2, “Use of benzo five-membered nitrogen heterocyclic piperazine or piperidine derivatives” (Liaoning Emmy Biological Pharmaceutical Co., Ltd., priority 2012, dated 2016).
Several values for one entry are separate records, joined by “and”; a condition that tells them apart may be missing. Identical values can stand only once. At least one compound was matched to its structure with a doubt left.

Tested on: Calcium Channel (Ca^2+)
Assay: Antagonism of accumulative constriction of rabbit aorta by CaCl2
Conditions: calcium free high kalium depolarization

CCOC(=O)C1=C(COCCN)NC(C)=C(C(=O)OC)C1c1ccccc1Cl (stereo not shown) [amlodipine, reference compound]
PA2 value to resist constriction of rabbit aorta by CaCl2: 6.99±0.05 and 7.51±0.288
